{"sequences": {"note": "By UniProt entry, the sequences of proteins in these tests, tags left out.", "UniProt P29351": "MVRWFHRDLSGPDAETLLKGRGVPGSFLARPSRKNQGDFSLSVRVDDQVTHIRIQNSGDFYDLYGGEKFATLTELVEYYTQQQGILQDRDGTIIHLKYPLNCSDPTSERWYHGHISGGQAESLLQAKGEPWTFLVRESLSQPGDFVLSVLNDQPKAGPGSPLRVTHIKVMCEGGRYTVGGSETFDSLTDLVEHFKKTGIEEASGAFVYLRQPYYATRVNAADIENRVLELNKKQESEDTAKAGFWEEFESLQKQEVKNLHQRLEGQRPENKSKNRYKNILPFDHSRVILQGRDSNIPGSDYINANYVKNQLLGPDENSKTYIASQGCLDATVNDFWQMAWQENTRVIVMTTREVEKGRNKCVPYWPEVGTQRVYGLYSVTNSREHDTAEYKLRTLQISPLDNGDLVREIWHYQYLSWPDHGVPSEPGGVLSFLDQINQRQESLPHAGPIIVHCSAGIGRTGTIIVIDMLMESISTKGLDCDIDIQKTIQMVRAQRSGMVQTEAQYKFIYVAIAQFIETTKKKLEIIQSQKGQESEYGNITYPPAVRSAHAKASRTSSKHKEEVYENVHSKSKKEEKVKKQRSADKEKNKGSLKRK"}, "source": "patent US20150239953A1", "key": {"Siglec G (mouse) (mouse) [1]": {"molecular_target": "T1, Siglec G (mouse) (mouse) (UniProt Q80ZE3)", "T1 sequence (tyrosine-phosphorylated after CD24Fc stimulation (sites not stated), looked up)": "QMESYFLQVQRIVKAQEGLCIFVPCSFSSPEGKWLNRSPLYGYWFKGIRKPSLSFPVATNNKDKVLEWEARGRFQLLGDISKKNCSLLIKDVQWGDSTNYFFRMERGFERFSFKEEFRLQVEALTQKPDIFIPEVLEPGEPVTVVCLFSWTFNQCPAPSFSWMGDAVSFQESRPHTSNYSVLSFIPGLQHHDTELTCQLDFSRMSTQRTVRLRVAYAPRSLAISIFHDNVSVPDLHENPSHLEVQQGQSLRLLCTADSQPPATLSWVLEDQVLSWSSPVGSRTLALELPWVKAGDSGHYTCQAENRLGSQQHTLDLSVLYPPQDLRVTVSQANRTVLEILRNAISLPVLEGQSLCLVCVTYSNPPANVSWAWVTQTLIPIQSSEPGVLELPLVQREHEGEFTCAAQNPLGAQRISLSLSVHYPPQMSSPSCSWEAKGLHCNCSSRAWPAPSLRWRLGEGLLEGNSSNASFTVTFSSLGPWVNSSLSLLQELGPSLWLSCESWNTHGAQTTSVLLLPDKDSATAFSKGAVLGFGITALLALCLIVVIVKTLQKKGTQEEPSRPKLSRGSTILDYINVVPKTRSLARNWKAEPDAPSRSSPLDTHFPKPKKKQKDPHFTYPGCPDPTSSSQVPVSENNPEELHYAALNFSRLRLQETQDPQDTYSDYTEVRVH", "assay": "co-immunoprecipitation with anti-Siglec G antisera, Western blot, spleen cells from CD24-/- mice stimulated with CD24Fc"}, "Siglec G (mouse) (mouse) [2]": {"molecular_target": "T1, Siglec G (mouse) (mouse)", "assay": "co-immunoprecipitation with anti-Siglec G antisera, Western blot, spleen cells from CD24-deficient mice stimulated with CD24Fc (1 µg/ml, 30 min)"}}, "note": "No constants are given. Whether binding was seen depends on the method and setting. In cells and extracts the contact can be indirect. Some entries that bind do so weakly or less than the wild type."}
{"substance": "SHP-1 (from UniProt P29351 1-595) (enzyme)", "values": [{"measurement": "binding", "setting": "Siglec G (mouse) (mouse) [1]", "value": "binds"}, {"measurement": "binding", "setting": "Siglec G (mouse) (mouse) [2]", "value": "binds"}]}
